Data published in patent publication US20130210057A1, “USE OF LABEL-FREE BIOSENSORS TO UNDERSTAND AND IDENTIFY TREATMENT FOR CANCER” (CORNING INCORPORATED, priority 2012, published 2013).
For at least one compound, name, drawing or mass did not settle the structure.

Assays:
[1] = test system: HCT116 parental cell line; assay: Label-free RWG biosensor DMR assay; type: cell-based, human
Description: (§1) EPIC® beta version wavelength interrogation system (Corning Inc., NY) was used for whole cell sensing. This system consists of a temperature-control unit, an optical detection unit, and an on-board liquid handling unit with robotics. The detection unit is centered on integrated fiber optics, and enables kinetic measures of cellular responses with a time interval of ˜15 sec. Also EPIC® commercial systems were used, with a liquid handler accessory attached to EPIC® reader system. Also, an Epic® RWG imager can be used.
(§2) The resonant waveguide grating (RWG) biosensor is capable of detecting minute changes in local index of refraction near the sensor surface and the waveguide thin film having gratings provide a cell culture surface. Since the local index of refraction within a cell is a function of density and its distribution of biomass (e.g., proteins, molecular complexes), the biosensor exploits its evanescent wave to non-invasively detect ligand-induced Dynamic Mass Redistribution (DMR) in native cells. When a cell is stimulated, it responds. That response is a redistribution of biomass in the cell. Upon stimulation, proteins, protein complexes, and/or organelles in the cells move. The evanescent wave extends into the cells and exponentially decays over distance, leading to a characteristic sensing depth of ˜150 nm. Any optical response mediated through receptor activation only represents an average over the portion of the cell that the evanescent wave is sampling. The aggregation of many cellular events downstream to the receptor activation leads to a DMR signal having characteristic kinetics and amplitudes.
(§3) All assays were carried out at a controlled temperature (28° C.). At least two independent sets of experiments, each with at least three replicates, were performed.

[2] = test system: HCT116-PTEN Null cell line; assay: Label-free RWG biosensor DMR assay; type: cell-based, human
Description: as §1, §2, §3

Compound: C=C[C@@]1(C)CC(=O)[C@]2(O)[C@@]3(C)[C@@H](O)CCC(C)(C)[C@@H]3[C@H](O)[C@H](OC(C)=O)[C@@]2(C)O1 [forskolin]
- effect of cholera toxin (CTx) pretreatment on the agonist DMR [1]: almost completely suppressed
- receptor / signaling pathway activated (pathway deconvolution of DMR with toxins) ([1]; HCT116 parental, 10 μM agonist): triggers signaling primarily via cAMP-PKA pathway
- effect of pertussis toxin (PTx) pretreatment on the agonist DMR ([1]; HCT116 parental, PTX 100 ng/ml overnight, 10 μM agonist): only accelerated
- effect of cholera toxin (CTx) pretreatment on the agonist DMR [2]: almost completely suppressed
- receptor / signaling pathway activated (pathway deconvolution of DMR with toxins) ([2]; HCT116-PTEN Null, 10 μM agonist): triggers signaling primarily via cAMP-PKA pathway
- effect of pertussis toxin (PTx) pretreatment on the agonist DMR ([2]; HCT116-PTEN Null, PTX 100 ng/ml overnight, 10 μM agonist): only accelerated
